# In PubChem BioAssay AID493014 (National Center for Advancing Translational Sciences (NCATS), 2011):
# This is one part of the list. Further columns of the screen follow, without active or inactive calls. Compounds called inactive in the main read-out are mostly missing here. The note in brackets gives the kind of curve behind each potency; many fits are weak.
# Assay: qHTS Assay to Find Inhibitors of Chronic Active B-Cell Receptor Signaling
# Settings: ABC-DLBCL IkBa-CBG/CBR reporter, luminescence ratio (green luciferase fused to IkBa over red control in TMD8 lymphoma cells), 4 h
# Outline: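 Doxycycline induced both beetle luciferases in TMD8 lymphoma cells; IKK-driven degradation limits the IkappaBalpha-fused green signal, while red luminescence normalises for cell number and nonspecific effects. Compounds tested up to 46 uM, 4 hrs.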
# [1] = measured here: CBR red luminescence, cell number
# [2] = measured here: IkBa-CBG green luminescence
Structure (SMILES),AC50 [1],AC50 [2]
CCC(=O)NCCc1nc2cc(NC(=O)c3ccc(F)cc3)ccc2n1C,"35.5 µM [falling, single point]",
Cc1ccc(C(C)C)c(OCC(=O)NN=C2CCCCCCC2)c1,"29.1 µM [rising, single point]","29.1 µM [falling, single point]"
COc1cc(CN2CCC(CO)(CCOc3ccccc3)CC2)cc(OC)c1,"35.5 µM [rising, single point]",
COc1ccc(C2Nc3cc(OC)ccc3-n3cccc32)cc1 (centres undefined),"0.447 µM [falling, full curve, poor fit]",
CCOC(=O)C1=CN(Cc2cccc(F)c2)S(=O)(=O)NC1c1ccc(F)c(Cl)c1 (centres undefined),"14.6 µM [falling, single point]","16.4 µM [rising, single point]"
COc1ccc(NC(=O)c2cc(S(=O)(=O)N(Cc3ccccc3)c3ccccc3)ccc2Cl)cn1,"32.6 µM [falling, single point]",
COCC(C)N=C1NN=C(c2cc(C)n(Cc3ccccc3Cl)c2C)CS1 (centres undefined),"35.5 µM [falling, single point]",
CCOC(=O)c1c(C)n(C)c2cc(-c3ccc(F)cc3)c(O)cc12,"1.16 µM [rising, full curve, poor fit]",
COc1ccccc1Nc1ncc(-c2cccs2)s1,"0.112 µM [rising, full curve, poor fit]",
CCCNc1ccc(S(=O)(=O)N(CC)CC)cn1,"20.6 µM [rising, single point]",
OC(Cn1nnc2ccccc21)Cn1c(C(F)(F)F)nc2ccccc21 (centres undefined),"5.01 µM [falling, partial curve, poor fit]",
O=C(CC1(O)C(=O)N(Cc2cccc3ccccc23)c2ccccc21)c1cccnc1 (centres undefined),"25.9 µM [rising, single point]","23.1 µM [falling, single point]"
Cc1ccccc1Cn1ccc(=NCc2ccccc2)cc1,"20.6 µM [falling, single point]",
Cc1cc(OC(F)F)ccc1NC(=O)Nc1ccc([N+](=O)[O-])cc1,"29.1 µM [falling, single point]",
Cc1ccc(OCCNC(=O)CCNC(=O)c2ccc(Cl)cc2)cc1,"29.1 µM [rising, single point]",
CC(C)CC(NC=C1C(=O)OC(C)(C)OC1=O)C(=O)O (centres undefined),"2.24 µM [rising, full curve, poor fit]",
COc1ccc(Br)cc1/C=N/Nc1cccc(C(=O)O)c1,"10.3 µM [falling, partial curve, poor fit]",
O=C(Nc1nc(-c2cccc(Br)c2)cs1)Oc1ccccc1,"2.82 µM [rising, partial curve, poor fit]",
CC(C)CN(C(=O)Cn1ccccc1=O)C1CCS(=O)(=O)C1 (centres undefined),"1.64 µM [rising, partial curve, poor fit]",
COc1cccc(-c2nc3ccccc3c(=O)o2)c1,"2.06 µM [falling, full curve]",
Oc1ccc(Cl)cc1C1=NNC(c2cccs2)C1 (centres undefined),"0.0891 µM [rising, full curve, poor fit]",

Structure (SMILES),AC50 [1],AC50 [2]
N#CC1=C(C2CC2)CC(c2ccccc2)C(C#N)=C1N (centres undefined),"2.82 µM [rising, full curve]",
CCN(CC(=O)Nc1ccc(C(=O)Nc2ccc(OC)cc2)cc1)Cc1nc2ccccc2c(=O)[nH]1,"1 µM [rising, full curve, poor fit]",
CN(Cc1ccccc1)C(=O)c1cc2cc(F)ccc2[nH]1,"0.794 µM [rising, full curve, poor fit]",
Cc1cc(NC(=O)CCS(=O)(=O)c2nc(-c3ccccc3)cc(C(F)(F)F)n2)no1,"5.8 µM [falling, full curve, poor fit]",
O=C(Nc1cccc2ncccc12)c1cc2ccccc2o1,"12.6 µM [falling, partial curve, poor fit]",
c1ccc(Nc2nc(-c3ccncc3)cs2)nc1,"0.651 µM [falling, partial curve, poor fit]",
CC1(c2ccccc2Cl)NC(=O)N(CC(=O)Nc2ccc(N3CCCCC3)cc2)C1=O (centres undefined),"4.11 µM [rising, partial curve]",
O=C(Nc1ccc([N+](=O)[O-])cc1)Nc1ccc2[nH]c(=O)[nH]c2c1,"12.6 µM [rising, partial curve, poor fit]",
CCOc1ccc(N(CC(=O)Nc2ccccc2OC)S(=O)(=O)c2ccccc2)cc1,,"8.91 µM [falling, partial curve]"
CCc1cccc(NC(=O)C2CCCC2)c1,"25.9 µM [rising, single point]",
Cc1oc(-c2ccc(-c3ccccc3)cc2)nc1CN(C)C1CCOC1 (centres undefined),"0.251 µM [falling, full curve]",
CCOCCCNC(=S)N(CCO)Cc1cc2cc3c(cc2[nH]c1=O)OCCO3,"20 µM [falling, partial curve, poor fit]",
CN1/C(=C\C(=O)c2cccs2)Sc2ccccc21,"35.5 µM [falling, single point]",
Cc1c(NC(=O)c2cc(Br)ccc2Cl)cccc1-n1cnnn1,"1.16 µM [rising, single point]",
Cc1ccc(C(=O)NC(=S)N2CCN(c3ccccc3F)CC2)cc1,"3.26 µM [rising, full curve, poor fit]",
COc1cc(/C=C(/C#N)C(=O)Nc2ccccc2)ccc1OCc1ccc(C(=O)O)cc1,"10 µM [falling, partial curve]",
CCCNC(=O)COCc1cc(-c2ccc(F)cc2)on1,"17.8 µM [falling, single point]",
Cc1ccc(SCC(=O)OCc2csc(CC(=O)Nc3ccccc3C)n2)cc1C,"13 µM [falling, partial curve, poor fit]",
COc1cc2[nH]c(C(=O)N3CCN(c4ccc(F)cc4)CC3)cc2c(OC)c1OC,"6.31 µM [rising, single point]",
COc1ccc(C(=O)CCS(=O)(=O)c2ccc(C)cc2)cc1,"35.5 µM [falling, single point]",

# Looked up above:
# Value for Cc1ccc(SCC(=O)OCc2csc(CC(=O)Nc3ccccc3C)n2)cc1C under AC50 [1]: 13 µM [falling, partial curve, poor fit]
# Value for O=C(Nc1ccc([N+](=O)[O-])cc1)Nc1ccc2[nH]c(=O)[nH]c2c1 under AC50 [1]: 12.6 µM [rising, partial curve, poor fit]
